In assay [1] the target is Flag-tagged HIV-1 Tat (HXB2 strain) (HIV-1 (HXB2 strain)) (UniProt P04608). The experiment in a line: co-IP; HeLa cells transfected with Flag–Tat, V5–NUCKS1, or both, two days; IP with anti-Flag antibody, blot with anti-Cyclin T1 and anti-Flag.
The target is the same in assay [2]. As to the kind of experiment: co-IP; HEK293 cells cotransfected with Flag-tagged HIV-1 protein and V5–NUCKS1, 48 h; lysis in 250 mM NaCl, 0.5% NP-40, 50 mM Tris-HCl pH 7.5, 5 mM EDTA; IP with anti-Flag M2 at 4°C, blot with anti-V5.
For assay [3] the target is unchanged. The experiment in a line: co-IP; lysate of Flag–Tat-expressing HEK293 (HEK293T in the legend) cells; IP with anti-Flag or anti-Pol II antibody, blot with anti-NUCKS1 or anti-Flag; endogenous NUCKS1.

By UniProt entry, the sequences of proteins in these tests, tags left out.
UniProt P04608: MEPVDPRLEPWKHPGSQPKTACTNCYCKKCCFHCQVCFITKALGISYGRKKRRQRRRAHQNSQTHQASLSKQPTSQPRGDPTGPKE

The values that follow come from PMC4181878.

These are yes or no findings as the source states them, for the method shown. Binding seen in cells or lysates may run through a third protein. Some binding calls cover weakened binding; strength is not graded here. For part of these data: Tags and fused reporters may be left off the sequences shown.

B1: V5-tagged NUCKS1 (protein, UniProt Q9H1E3-1 1-243)
chain: MSRPVRNRKVVDYSQFQESDDADEDYGRDSGPPTKKIRSSPREAKNKRRSGKNSQEDSEDSEDKDVKTKKDDSHSAEDSEDEKEDHKNVRQQRQAASKAASKQREMLMEDVGSEEEQEEEDEAPFQEKDSGSDEDFLMEDDDDSDYGSSKKKNKKMVKKSKPERKEKKMPKPRLKATVTPSPVKGKGKVGRPTASKASKEKTPSPKEEDEEPESPPEKKTSTSPPPEKSGDEGSEDEAPSGED
Turning to B1, the binding result in assay [1] and in assay [2] was “binds” in each case.

B2: endogenous NUCKS1 (protein, UniProt Q9H1E3 1-243)
chain: MSRPVRNRKVVDYSQFQESDDADEDYGRDSGPPTKKIRSSPREAKNKRRSGKNSQEDSEDSEDKDVKTKKDDSHSAEDSEDEKEDHKNVRQQRQAASKAASKQREMLMEDVGSEEEQEEEDEAPFQEKDSGSDEDFLMEDDDDSDYGSSKKKNKKMVKKSKPERKEKKMPKPRLKATVTPSPVKGKGKVGRPTASKASKEKTPSPKEEDEEPESPPEKKTSTSPPPEKSGDEGSEDEAPSGED
With B2, in assay [3], the binding result is listed as “binds”.
